Measured values: PMC8120205
No constants are given. Whether binding was seen depends on the method and setting. Binding seen in cells or lysates may run through a third protein. Some entries that bind do so weakly or less than the wild type.

Protein sequences, listed by entry. Tags and fused reporters are not part of them.
UniProt Q9BQA1: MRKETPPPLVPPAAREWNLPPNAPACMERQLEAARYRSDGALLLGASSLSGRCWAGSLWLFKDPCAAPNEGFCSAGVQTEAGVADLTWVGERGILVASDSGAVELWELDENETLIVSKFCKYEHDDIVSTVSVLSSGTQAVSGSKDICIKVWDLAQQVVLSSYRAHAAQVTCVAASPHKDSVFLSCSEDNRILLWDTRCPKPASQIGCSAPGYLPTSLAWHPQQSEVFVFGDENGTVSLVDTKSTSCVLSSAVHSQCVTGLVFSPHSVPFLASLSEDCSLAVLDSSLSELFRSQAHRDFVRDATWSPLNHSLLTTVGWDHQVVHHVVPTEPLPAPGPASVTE
UniProt O14744: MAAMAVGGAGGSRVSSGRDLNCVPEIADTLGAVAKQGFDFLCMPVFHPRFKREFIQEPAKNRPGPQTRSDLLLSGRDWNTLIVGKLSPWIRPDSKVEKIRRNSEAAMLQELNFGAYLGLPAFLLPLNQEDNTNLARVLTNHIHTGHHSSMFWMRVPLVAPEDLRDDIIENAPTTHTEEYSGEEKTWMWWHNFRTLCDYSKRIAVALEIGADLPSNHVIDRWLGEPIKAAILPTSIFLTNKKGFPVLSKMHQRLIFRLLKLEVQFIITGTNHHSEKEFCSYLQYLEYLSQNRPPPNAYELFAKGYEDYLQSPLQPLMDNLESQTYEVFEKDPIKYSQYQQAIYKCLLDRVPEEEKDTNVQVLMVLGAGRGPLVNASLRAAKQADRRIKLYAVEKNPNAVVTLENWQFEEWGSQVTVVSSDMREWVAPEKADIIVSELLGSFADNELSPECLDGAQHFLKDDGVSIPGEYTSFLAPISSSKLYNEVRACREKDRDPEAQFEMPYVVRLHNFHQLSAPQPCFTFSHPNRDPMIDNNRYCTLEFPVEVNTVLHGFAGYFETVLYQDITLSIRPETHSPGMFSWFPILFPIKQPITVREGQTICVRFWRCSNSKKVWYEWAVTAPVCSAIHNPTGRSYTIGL

What was measured:
[1] = target: T1, Endogenous MYOCD (A549) (human (endogenous in A549)) (UniProt Q8IZQ8); assay: co-IP; endogenous proteins; lysate from 5 × 10^7 A549 cells; immunoprecipitation with antibody against each of MYOCD, PRMT5 and MEP50, immunoblot
T1 sequence: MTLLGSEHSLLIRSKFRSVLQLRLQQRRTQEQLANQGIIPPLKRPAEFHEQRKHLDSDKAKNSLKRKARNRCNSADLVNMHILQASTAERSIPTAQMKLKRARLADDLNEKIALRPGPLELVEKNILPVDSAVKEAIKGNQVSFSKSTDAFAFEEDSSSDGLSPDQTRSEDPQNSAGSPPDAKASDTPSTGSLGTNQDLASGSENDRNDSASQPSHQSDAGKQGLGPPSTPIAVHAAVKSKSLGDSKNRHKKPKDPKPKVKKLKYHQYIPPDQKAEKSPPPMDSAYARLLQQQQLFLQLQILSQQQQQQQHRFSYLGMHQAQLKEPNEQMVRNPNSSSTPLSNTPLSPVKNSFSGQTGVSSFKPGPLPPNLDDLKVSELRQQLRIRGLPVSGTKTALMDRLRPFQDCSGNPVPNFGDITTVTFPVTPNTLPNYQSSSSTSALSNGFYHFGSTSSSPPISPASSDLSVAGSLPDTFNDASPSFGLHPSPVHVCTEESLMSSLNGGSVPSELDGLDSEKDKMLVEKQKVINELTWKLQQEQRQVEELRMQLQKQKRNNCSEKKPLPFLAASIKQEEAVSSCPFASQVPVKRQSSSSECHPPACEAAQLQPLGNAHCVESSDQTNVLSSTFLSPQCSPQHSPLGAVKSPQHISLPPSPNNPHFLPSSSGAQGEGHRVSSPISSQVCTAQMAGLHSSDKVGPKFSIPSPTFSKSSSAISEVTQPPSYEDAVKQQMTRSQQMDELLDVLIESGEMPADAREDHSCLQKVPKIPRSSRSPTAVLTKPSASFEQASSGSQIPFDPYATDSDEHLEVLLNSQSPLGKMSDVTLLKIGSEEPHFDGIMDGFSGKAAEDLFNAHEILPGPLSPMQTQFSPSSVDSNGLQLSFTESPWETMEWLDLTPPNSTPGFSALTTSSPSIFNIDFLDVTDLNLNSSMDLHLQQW

[2] = target: T2, MYOCD (co-overexpressed from a plasmid) (UniProt Q8IZQ8); assay: co-IP; 293T cells (text: HEK293) transfected with the indicated plasmids (2.5 μg each); coimmunoprecipitation and immunoblot with the indicated antibodies
T2 sequence: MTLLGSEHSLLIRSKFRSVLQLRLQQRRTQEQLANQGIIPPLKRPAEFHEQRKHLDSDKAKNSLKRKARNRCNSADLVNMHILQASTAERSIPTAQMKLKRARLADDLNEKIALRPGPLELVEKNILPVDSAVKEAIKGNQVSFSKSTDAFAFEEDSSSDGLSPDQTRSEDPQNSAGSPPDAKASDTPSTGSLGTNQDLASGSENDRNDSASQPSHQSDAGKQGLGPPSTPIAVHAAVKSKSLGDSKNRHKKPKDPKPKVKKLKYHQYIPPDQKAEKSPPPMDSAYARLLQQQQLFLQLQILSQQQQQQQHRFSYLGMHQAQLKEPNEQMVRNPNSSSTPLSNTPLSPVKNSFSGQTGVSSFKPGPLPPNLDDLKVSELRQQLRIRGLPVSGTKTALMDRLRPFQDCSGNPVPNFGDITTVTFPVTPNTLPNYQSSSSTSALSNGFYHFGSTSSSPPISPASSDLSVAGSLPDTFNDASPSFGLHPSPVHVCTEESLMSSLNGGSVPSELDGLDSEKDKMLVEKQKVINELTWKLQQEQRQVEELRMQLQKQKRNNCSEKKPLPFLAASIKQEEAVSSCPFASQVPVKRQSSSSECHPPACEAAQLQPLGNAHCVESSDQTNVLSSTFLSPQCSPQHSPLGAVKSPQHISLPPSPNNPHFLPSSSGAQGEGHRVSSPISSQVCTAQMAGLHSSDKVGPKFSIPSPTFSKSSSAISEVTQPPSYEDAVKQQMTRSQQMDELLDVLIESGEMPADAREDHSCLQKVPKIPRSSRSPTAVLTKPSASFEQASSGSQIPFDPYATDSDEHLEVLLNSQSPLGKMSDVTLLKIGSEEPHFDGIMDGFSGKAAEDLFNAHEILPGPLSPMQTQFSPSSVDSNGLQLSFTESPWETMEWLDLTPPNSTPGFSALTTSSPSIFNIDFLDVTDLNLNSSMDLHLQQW

[3] = target: Endogenous MEP50 (A549) (human (endogenous in A549)) (UniProt Q9BQA1); assay: co-IP; endogenous proteins; lysate from 5 × 10^7 A549 cells; immunoprecipitation with antibody against each of MYOCD, PRMT5 and MEP50, immunoblot
[4] = target: Endogenous PRMT5 (A549) (human (endogenous in A549)) (UniProt O14744); assay: as above

For “Endogenous MEP50 (A549) (from UniProt Q9BQA1 1-342)”, the binding [1] was “binds”.

For “Endogenous PRMT5 (A549) (from UniProt O14744 1-637)”, the binding [1] was “binds”.

With “MEP50 (co-overexpressed from a plasmid) (from UniProt Q9BQA1 1-342)” the binding [2] was “binds”.

For “PRMT5 (co-overexpressed from a plasmid) (from UniProt O14744 1-637)”, the binding [2] was “binds”.

B1: Endogenous MYOCD (A549) (protein, UniProt Q8IZQ8 1-938)
chain: MTLLGSEHSLLIRSKFRSVLQLRLQQRRTQEQLANQGIIPPLKRPAEFHEQRKHLDSDKAKNSLKRKARNRCNSADLVNMHILQASTAERSIPTAQMKLKRARLADDLNEKIALRPGPLELVEKNILPVDSAVKEAIKGNQVSFSKSTDAFAFEEDSSSDGLSPDQTRSEDPQNSAGSPPDAKASDTPSTGSLGTNQDLASGSENDRNDSASQPSHQSDAGKQGLGPPSTPIAVHAAVKSKSLGDSKNRHKKPKDPKPKVKKLKYHQYIPPDQKAEKSPPPMDSAYARLLQQQQLFLQLQILSQQQQQQQHRFSYLGMHQAQLKEPNEQMVRNPNSSSTPLSNTPLSPVKNSFSGQTGVSSFKPGPLPPNLDDLKVSELRQQLRIRGLPVSGTKTALMDRLRPFQDCSGNPVPNFGDITTVTFPVTPNTLPNYQSSSSTSALSNGFYHFGSTSSSPPISPASSDLSVAGSLPDTFNDASPSFGLHPSPVHVCTEESLMSSLNGGSVPSELDGLDSEKDKMLVEKQKVINELTWKLQQEQRQVEELRMQLQKQKRNNCSEKKPLPFLAASIKQEEAVSSCPFASQVPVKRQSSSSECHPPACEAAQLQPLGNAHCVESSDQTNVLSSTFLSPQCSPQHSPLGAVKSPQHISLPPSPNNPHFLPSSSGAQGEGHRVSSPISSQVCTAQMAGLHSSDKVGPKFSIPSPTFSKSSSAISEVTQPPSYEDAVKQQMTRSQQMDELLDVLIESGEMPADAREDHSCLQKVPKIPRSSRSPTAVLTKPSASFEQASSGSQIPFDPYATDSDEHLEVLLNSQSPLGKMSDVTLLKIGSEEPHFDGIMDGFSGKAAEDLFNAHEILPGPLSPMQTQFSPSSVDSNGLQLSFTESPWETMEWLDLTPPNSTPGFSALTTSSPSIFNIDFLDVTDLNLNSSMDLHLQQW
With B1 the binding [3] was “binds” and the binding [4] was “binds”.
